The experiment deals with T1, Strep-GlnA1 (Methanosarcina mazei) (UniProt Q8PY99).
T1 sequence: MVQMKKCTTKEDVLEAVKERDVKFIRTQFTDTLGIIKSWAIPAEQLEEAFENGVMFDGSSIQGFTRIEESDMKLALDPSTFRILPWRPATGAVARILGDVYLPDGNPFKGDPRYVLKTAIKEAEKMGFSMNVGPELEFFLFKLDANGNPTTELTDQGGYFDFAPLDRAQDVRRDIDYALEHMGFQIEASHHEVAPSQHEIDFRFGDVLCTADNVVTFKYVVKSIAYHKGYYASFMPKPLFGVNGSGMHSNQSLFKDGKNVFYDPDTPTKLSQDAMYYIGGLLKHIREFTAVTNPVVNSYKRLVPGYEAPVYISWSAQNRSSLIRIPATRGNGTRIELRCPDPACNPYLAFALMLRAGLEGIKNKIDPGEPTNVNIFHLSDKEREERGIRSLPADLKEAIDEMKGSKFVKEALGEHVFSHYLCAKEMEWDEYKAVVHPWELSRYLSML
Description: pull-down.

These are yes or no findings as the source states them, for the method shown. In cells and extracts the contact can be indirect. A result given as binding can be weak or reduced; the word gives no strength.

On to “His6-SUMO-His6-sP26 (Methanosarcina mazei)”, for which the binding result was “binds”.

For the origin of these results see publication doi:10.1101/2020.05.06.080432.
